# Some of the results follow.
# B1: ERGIC1-EDTA (Homo sapiens), Q969X5 (protein)
# chain: MKFLVNVALVFMVVYISYIYAAAHMHHHHHHDYDIPTTENLYFQGSEVVNELYVDDPDKDSGGKIDVSLNISLPNLHCELVGLDIQDEMGRHEVGHIDNSMKIPLNNGAGCRFEGQFSINKVPGNFHVSTHSATAQPQNPDMTHVIHKLSFGDTLQVQNIHGAFNALGGADRLTSNPLASHDYILKIVPTVYEDKSGKQRYSYQYTVANKEYVAYSHTGRIIPAIWFRYDLSPITVKYTE
# Assays:
# Experiment in all cases: glycan array binding signal (z-score within array); higher = stronger binding
# Conditions in all cases: glycan notation: IUPAC condensed, linker removed
# [1] = target: Neu5Ac(a2-6)Gal(b1-4)GlcNAc(b1-2)Man(a1-3)[GlcNAc(b1-4)][Neu5Ac(a2-6)Gal(b1-4)GlcNAc(b1-2)Man(a1-6)]Man(b1-4)GlcNAc(b1-4)GlcNAc
# How it was run: (§1)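 The Consortium for Functional Glycomics database supplied 3228 glycan arrays, of which those lacking an available protein sequence were dropped. The binding signal, a within-array Z-score, was averaged across arrays of the same protein sequence and across linkers. Negative scores can be read as non-binding.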
# [2] = target: Neu5Ac(a2-6)Gal(b1-4)GlcNAc(b1-2)Man(a1-3)[Man(a1-6)]Man(b1-4)GlcNAc(b1-4)GlcNAc
# How it was run: as §1
# [3] = target: Neu5Ac(a2-6)Gal(b1-4)GlcNAc(b1-2)Man(a1-3)[Neu5Ac(a2-3)Gal(b1-4)GlcNAc(b1-2)Man(a1-6)]Man(b1-4)GlcNAc(b1-4)GlcNAc
# How it was run: as §1
# [4] = target: Neu5Ac(a2-6)Gal(b1-4)GlcNAc(b1-2)Man(a1-3)[Neu5Ac(a2-6)Gal(b1-4)GlcNAc(b1-2)Man(a1-6)]Man(b1-4)GlcNAc(b1-4)GlcNAc
# How it was run: as §1
# [5] = target: Neu5Ac(a2-6)Gal(b1-4)GlcNAc(b1-2)Man(a1-3)[Neu5Ac(a2-6)Gal(b1-4)GlcNAc(b1-2)Man(a1-6)]Man(b1-4)GlcNAc(b1-4)[Fuc(a1-6)]GlcNAc
# How it was run: as §1
# [6] = target: Neu5Ac(a2-6)Gal(b1-4)GlcNAc(b1-2)Man(a1-6)Man(b1-4)GlcNAc(b1-4)GlcNAc
# How it was run: as §1
# [7] = target: Neu5Ac(a2-6)Gal(b1-4)GlcNAc(b1-2)Man(a1-6)[Gal(b1-4)GlcNAc(b1-2)Man(a1-3)]Man(b1-4)GlcNAc(b1-4)GlcNAc
# How it was run: as §1
# [8] = target: Neu5Ac(a2-6)Gal(b1-4)GlcNAc(b1-2)Man(a1-6)[GlcNAc(b1-2)Man(a1-3)]Man(b1-4)GlcNAc(b1-4)GlcNAc
# How it was run: as §1
# [9] = target: Neu5Ac(a2-6)Gal(b1-4)GlcNAc(b1-2)Man(a1-6)[Man(a1-3)]Man(b1-4)GlcNAc(b1-4)GlcNAc
# How it was run: as §1
# [10] = target: Neu5Ac(a2-6)Gal(b1-4)GlcNAc(b1-2)[Neu5Ac(a2-6)Gal(b1-4)GlcNAc(b1-4)]Man(a1-3)[GlcNAc(b1-4)][Neu5Ac(a2-6)Gal(b1-4)GlcNAc(b1-2)[Neu5Ac(a2-6)Gal(b1-4)GlcNAc(b1-6)]Man(a1-6)]Man(b1-4)GlcNAc(b1-4)GlcNAc
# How it was run: as §1
# [11] = target: Neu5Ac(a2-6)Gal(b1-4)GlcNAc(b1-2)[Neu5Ac(a2-6)Gal(b1-4)GlcNAc(b1-4)]Man(a1-3)[GlcNAc(b1-4)][Neu5Ac(a2-6)Gal(b1-4)GlcNAc(b1-4)Man(a1-6)]Man(b1-4)GlcNAc(b1-4)GlcNAc
# How it was run: as §1
# [12] = target: Neu5Ac(a2-6)Gal(b1-4)GlcNAc(b1-2)[Neu5Ac(a2-6)Gal(b1-4)GlcNAc(b1-6)]Man(a1-6)[Neu5Ac(a2-6)Gal(b1-4)GlcNAc(b1-2)Man(a1-3)][GlcNAc(b1-4)]Man(b1-4)GlcNAc(b1-4)GlcNAc
# How it was run: as §1
# [13] = target: Neu5Ac(a2-6)Gal(b1-4)GlcNAc(b1-3)Gal(b1-3)GlcNAc
# How it was run: as §1
# [14] = target: Neu5Ac(a2-6)Gal(b1-4)GlcNAc(b1-3)Gal(b1-4)GlcNAc
# How it was run: as §1
# [15] = target: Neu5Ac(a2-6)Gal(b1-4)GlcNAc(b1-3)Gal(b1-4)GlcNAc(b1-2)Man(a1-3)[Neu5Ac(a2-6)Gal(b1-4)GlcNAc(b1-3)Gal(b1-4)GlcNAc(b1-2)Man(a1-6)]GalNAc
# How it was run: as §1
# [16] = target: Neu5Ac(a2-6)Gal(b1-4)GlcNAc(b1-3)Gal(b1-4)GlcNAc(b1-3)Gal(b1-4)GlcNAc
# How it was run: as §1
# [17] = target: Neu5Ac(a2-6)Gal(b1-4)GlcNAc(b1-3)Gal(b1-4)GlcNAc(b1-3)Gal(b1-4)GlcNAc(b1-2)Man(a1-3)[Neu5Ac(a2-6)Gal(b1-4)GlcNAc(b1-3)Gal(b1-4)GlcNAc(b1-3)Gal(b1-4)GlcNAc(b1-2)Man(a1-6)]GalNAc
# How it was run: as §1
# [18] = target: Neu5Ac(a2-6)Gal(b1-4)GlcNAc(b1-3)Gal(b1-4)GlcNAc(b1-3)GalNAc
# How it was run: as §1
# [19] = target: Neu5Ac(a2-6)Gal(b1-4)GlcNAc(b1-3)Gal(b1-4)GlcNAc(b1-3)[Neu5Ac(a2-6)Gal(b1-4)GlcNAc(b1-3)Gal(b1-4)GlcNAc(b1-6)]GalNAc
# How it was run: as §1
# [20] = target: Neu5Ac(a2-6)Gal(b1-4)GlcNAc(b1-3)Gal(b1-4)GlcNAc(b1-6)[Gal(b1-3)]GalNAc
# How it was run: as §1
# [21] = target: Neu5Ac(a2-6)Gal(b1-4)GlcNAc(b1-3)Gal(b1-4)[Fuc(a1-3)]GlcNAc(b1-3)Gal(b1-4)[Fuc(a1-3)]GlcNAc
# How it was run: as §1
# [22] = target: Neu5Ac(a2-6)Gal(b1-4)GlcNAc(b1-3)GalNAc
# How it was run: as §1
# [23] = target: Neu5Ac(a2-6)Gal(b1-4)GlcNAc(b1-3)[Neu5Ac(a2-6)Gal(b1-4)GlcNAc(b1-6)]GalNAc
# How it was run: as §1
# [24] = target: Neu5Ac(a2-6)Gal(b1-4)GlcNAc(b1-6)GalNAc
# How it was run: as §1
# [25] = target: Neu5Ac(a2-6)Gal(b1-4)GlcNAc(b1-6)[Gal(b1-3)GlcNAc(b1-3)]Gal(b1-4)Glc
# How it was run: as §1
# [26] = target: Neu5Ac(a2-6)Gal(b1-4)GlcNAc(b1-6)[Gal(b1-3)]GalNAc
# How it was run: as §1
# [27] = target: Neu5Ac(a2-6)Gal(b1-4)GlcNAc6S
# How it was run: as §1
# [28] = target: Neu5Ac(a2-6)GalNAc
# How it was run: as §1
# [29] = target: Neu5Ac(a2-6)GalNAc(b1-4)GlcNAc
# How it was run: as §1
# [30] = target: Neu5Ac(a2-6)GalNAc(b1-4)GlcNAc6S
# How it was run: as §1
# [31] = target: Neu5Ac(a2-6)GlcNAc(b1-4)GlcNAc
# How it was run: as §1
binder,measurement,setting,value
B1,glycan array binding signal (z-score),[1],-1.28
same,glycan array binding signal (z-score),[2],1.69
same,glycan array binding signal (z-score),[3],-1.27
same,glycan array binding signal (z-score),[4],-0.027
same,glycan array binding signal (z-score),[5],2.07
same,glycan array binding signal (z-score),[6],-0.57
same,glycan array binding signal (z-score),[7],0.663
same,glycan array binding signal (z-score),[8],0.274
same,glycan array binding signal (z-score),[9],-0.358
same,glycan array binding signal (z-score),[10],-0.088
same,glycan array binding signal (z-score),[11],-0.499
same,glycan array binding signal (z-score),[12],-0.234
same,glycan array binding signal (z-score),[13],0.896
same,glycan array binding signal (z-score),[14],-0.115
same,glycan array binding signal (z-score),[15],0.213
same,glycan array binding signal (z-score),[16],-0.696
same,glycan array binding signal (z-score),[17],2.02
same,glycan array binding signal (z-score),[18],0.381
same,glycan array binding signal (z-score),[19],0.601
same,glycan array binding signal (z-score),[20],1.47
same,glycan array binding signal (z-score),[21],0.152
same,glycan array binding signal (z-score),[22],-0.625
same,glycan array binding signal (z-score),[23],-1.06
same,glycan array binding signal (z-score),[24],0.124
same,glycan array binding signal (z-score),[25],-0.389
same,glycan array binding signal (z-score),[26],-0.167
same,glycan array binding signal (z-score),[27],-0.225
same,glycan array binding signal (z-score),[28],0.084
same,glycan array binding signal (z-score),[29],-1.36
same,glycan array binding signal (z-score),[30],0.07
same,glycan array binding signal (z-score),[31],0.54

# Reprinted at random: two entries already listed
binder,measurement,setting,value
B1,glycan array binding signal (z-score),[25],-0.389
same,glycan array binding signal (z-score),[5],2.07

# — the supplement of paper PMC8728848
